Experimental data: patent publication US10226045B2, “Azoline compounds” (priority 2014, dated 2019)
Some of these results come from one statement about several compounds together.

What was measured:
Type in all cases: in vivo
[1] = system: Vetch Aphid (Megoura viciae); experiment: Vetch aphid, broad bean leaf disk test; details: 2500 ppm; adult aphids on sprayed broad bean leaf disks; 5 days; in comparison with untreated controls
How it was run: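 Broad bean leaf disks sprayed with compounds in 25% DMSO/water at various concentrations, two replicates, then air-dried and infested with 5-8 adult Megoura viciae (contact/systemic exposure). After 5 days at about 23±1 °C and 50±5% RH, mortality and fecundity scored visually.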

[2] = system: Boll Weevil (Anthonomus grandis); experiment: Boll weevil, insect diet microtiter plate test; details: 2500 ppm; eggs on sprayed insect diet; egg and larval mortality after 5 days; in comparison with untreated controls
How it was run: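 Compounds in 75% water/25% DMSO sprayed at several concentrations (5 μl, two replicates) onto insect diet in 96-well microtiter plates holding 5-10 A. grandis eggs. After 5 days at about 25±1° C and 75±5% relative humidity, egg and larval mortality scored visually.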

[3] = system: Red Spider Mite (Tetranychus kanzawai); experiment: Red spider mite, sprayed cowpea beans; details: 300 ppm; mites on sprayed cowpea beans; 72 hours after treatment; in comparison with untreated controls
[4] = system: Mediterranean Fruitfly (Ceratitis capitata); experiment: Mediterranean fruitfly, insect diet microtiter plate test; details: 2500 ppm; eggs on sprayed insect diet; egg and larval mortality after 5 days; in comparison with untreated controls

Measured: mortality

O=C(NCC1CC1)c1ccc(C2=NCC(c3cc(Cl)c(F)c(Cl)c3)(C(F)(F)F)C2)c2c1CCC2 (racemic) [Compound 2-6]
at least 75%: [1] | [2] | [3] | [4]

O=C(CNC(=O)c1ccc(C2=NCC(c3cc(Cl)c(F)c(Cl)c3)(C(F)(F)F)C2)c2c1CCC2)NCC(F)(F)F (racemic) [Compound 2-7]
at least 75%: [1] | [2] | [3] | [4]

O=C(NCc1ccccn1)c1ccc(C2=NCC(c3cc(Cl)c(F)c(Cl)c3)(C(F)(F)F)C2)c2c1CCC2 (racemic) [Compound 2-9]
at least 75%: [1] | [2] | [3] | [4]

O=C(NCc1ncccn1)c1ccc(C2=NCC(c3cc(Cl)c(F)c(Cl)c3)(C(F)(F)F)C2)c2c1CCC2 (racemic) [Compound 2-10]
at least 75%: [1] | [2] | [3] | [4]

O=C(NCc1ccccn1)c1ccc(C2=NOC(c3cc(Cl)c(F)c(Cl)c3)(C(F)(F)F)C2)c2c1CCC2 (stereo not drawn) [Compound 1-6]
at least 75%: [1] | [2] | [3] | [4]

O=C(NCc1ncccn1)c1ccc(C2=NOC(c3cc(Cl)c(F)c(Cl)c3)(C(F)(F)F)C2)c2c1CCC2 (stereo not drawn) [Compound 1-7]
at least 75%: [1] | [2] | [3] | [4]

O=C(NCC(F)(F)F)c1ccc(C2=NOC(c3cc(Cl)c(F)c(Cl)c3)(C(F)(F)F)C2)c2c1CCC2 (stereo not drawn) [Compound 1-12]
at least 75%: [1] | [2] | [3] | [4]

C#CCNC(=O)c1ccc(C2=NOC(c3cc(Cl)c(F)c(Cl)c3)(C(F)(F)F)C2)c2c1CCC2 (stereo not drawn) [Compound 1-14]
at least 75%: [1] | [2] | [3] | [4]

O=C(NCC1CCS1(=O)=O)c1ccc(C2=NOC(c3cc(Cl)c(F)c(Cl)c3)(C(F)(F)F)C2)c2c1CCC2 (stereo not drawn) [Compound 1-21]
at least 75%: [1] | [2] | [3] | [4]

CON=CNC(=O)c1ccc(C2=NOC(c3cc(Cl)c(F)c(Cl)c3)(C(F)(F)F)C2)c2c1CCC2 (stereo not drawn) [Compound 1-23]
at least 75%: [1] | [2] | [3] | [4]

CON=CNC(=O)c1ccc(C2=NOC(c3cc(Cl)cc(Cl)c3)(C(F)(F)F)C2)c2c1CCC2 (stereo not drawn) [Compound 1-26]
at least 75%: [1] | [2] | [3] | [4]

O=C(CNC(=O)c1ccc(C2=NOC(c3cc(Cl)cc(Cl)c3)(C(F)(F)F)C2)c2c1CCC2)NCC(F)(F)F (stereo not drawn) [Compound 1-28]
at least 75%: [1] | [2] | [3] | [4]

O=C(NCc1ncccn1)c1ccc(C2=NOC(c3cc(Cl)cc(Cl)c3)(C(F)(F)F)C2)c2c1CCC2 (stereo not drawn) [Compound 1-30]
at least 75%: [1] | [2] | [3] | [4]

O=C(NC1CC1)c1ccc(C2=NOC(c3cc(Cl)cc(Cl)c3)(C(F)(F)F)C2)c2c1CCC2 (stereo not drawn) [Compound 1-31]
at least 75%: [1] | [2] | [3] | [4]

O=C(NCc1cscn1)c1ccc(C2=NOC(c3cc(Cl)cc(Cl)c3)(C(F)(F)F)C2)c2c1CCC2 (stereo not drawn) [Compound 1-32]
at least 75%: [1] | [2] | [3] | [4]
